Laboratory results from PubChem BioAssay AID1918948 (Molecular Pharmacology Branch, DTP, NCI, 2023).
Several values for one entry are separate records, joined by “and”; a condition that tells them apart may be missing. Equal values may be shown once. Further values from the same series stand in other lists.

System: K-562 leukemia growth, % test/control
Assay: Anticancer human tumor K-562 cell line growth inhibition;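 note: spheroids exposed to compounds for 7 days; 100% = DMSO vehicle wells and lower values mean fewer viable cells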
Conditions: active compounds read low, spheroids with HUVEC and MSC
Source text: Multicellular complex tumor spheroid response to LSD1 Inhibitor Iadademstat in combination with a variety of drugs and investigational agents in selected tumor cell lines
The current study was undertaken to assess response to LSD1 inhibitors in combination with standard-of-care drugs and investigational agents in solid tumor complex spheroid models as well as in the K-562 leukemia. Complex spheroids include a stromal component modeled by human endothelial cells (HUVEC) and fibroblasts modeled by human mesenchymal stem cells (MSCs). The concentration ranges selected for each drug and investigational agent were based upon clinically achievable concentrations if the clinical Cmax of the agent was known.
Compounds. The drugs and investigational agents used in this study are listed on Table 1. All of the agents used, including staurosporine (NSC755774) and gemcitabine (NSC613327), were obtained from the Developmental Therapeutics Program, NCI. FDA-approved anticancer drugs are available from the NCI at http://dtp.nci.nih.gov/branches/dscb/oncology_drugset_explanation.html. Drugs and investigational agents were >95% pure by proton nuclear magnetic resonance (NMR) and liquid chromatography/mass spectrometry (LC/MS). Stock solutions were prepared at 400x in DMSO, stored at -70 degrees C, and diluted in fresh medium prior to their use. The final concentration of DMSO in cell culture wells never exceeded 0.25% (v/v). The FDA-approved anticancer drug set is available from the Developmental Therapeutics Program at https://dtp.cancer.gov/organization/dscb/obtaining/available_plates.htm. All drugs and investigational agents were tested over a range starting from a high concentration at or near the clinical Cmax and decreasing in half-log increments. If the clinical Cmax for an agent had not been determined, the highest concentration tested was 10 microM.
Cell Lines. […]

Row | SMILES | viability, T/C (compound 0.1 µM) | viability, T/C (compound 0.316 µM) | viability, T/C (compound 10 µM)
1 | NC1CC1c1ccc(-c2cccc(O)c2)cc1 (stereo not drawn) | 108% [middle of 22 runs] |  | 
2 | NC1CCC(NC2CC2c2ccccc2)CC1 (stereo not drawn) |  | 102% [middle of 19 runs] | 96.7% and 101%
